# Experimental data: the supplement of paper PMC4604168 (melanoma cell lines)
# The other results are listed elsewhere or left out. Repeats are few or missing, and single values can be far off.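 Cells were imaged in 1,536-well plates, and nuclei stained with an antibody against cleaved PARP were counted against all DNA-stained nuclei to give the apoptosis fraction. Screening doses were chosen to leave most cells alive, and resting and induced cleaved-PARP levels differ strongly between cell lines.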
# System: COLO800
# Test: cleaved PARP positive nuclei fraction relative to DMSO control; melanoma cells; higher = more apoptosis
# Conditions: library dose: low library concentration; 72 h
row,SMILES,cleaved PARP positive nuclei fraction
1,"CC[C@]1(O)C[C@H]2CN(CCc3c([nH]c4ccccc34)[C@@](C(=O)OC)(c3cc4c(cc3OC)N(C=O)[C@H]3[C@@](O)(C(=O)OC)[C@H](OC(C)=O)[C@]5(CC)C=CCN6CC[C@]43[C@@H]65)C2)C1 [vincristine] + CO[C@H]1C[C@@H]2CC[C@@H](C)[C@@](O)(O2)C(=O)C(=O)N2CCCC[C@H]2C(=O)O[C@H]([C@H](C)C[C@@H]2CC[C@@H](OCCO)[C@H](OC)C2)CC(=O)[C@H](C)/C=C(\C)[C@@H](O)[C@@H](OC)C(=O)[C@H](C)C[C@H](C)/C=C/C=C/C=C/1C [everolimus] (first compound 0.0001 µM, partner dose 0.02 µM)",84.1%
2,"COc1cc([C@@H]2c3cc4c(cc3[C@@H](O[C@@H]3O[C@@H]5CO[C@@H](C)O[C@H]5[C@H](O)[C@H]3O)[C@H]3COC(=O)[C@H]23)OCO4)cc(OC)c1O [etoposide] + CC1(C)CCC(c2ccc(Cl)cc2)=C(CN2CCN(c3ccc(C(=O)NS(=O)(=O)c4ccc(N[C@H](CCN5CCOCC5)CSc5ccccc5)c(S(=O)(=O)C(F)(F)F)c4)cc3)CC2)C1 [ABT263] (first compound 0.02 µM, partner dose 0.4 µM)",193%
3,"CC[C@]1(O)C[C@H]2CN(CCc3c([nH]c4ccccc34)[C@@](C(=O)OC)(c3cc4c(cc3OC)N(C=O)[C@H]3[C@@](O)(C(=O)OC)[C@H](OC(C)=O)[C@]5(CC)C=CCN6CC[C@]43[C@@H]65)C2)C1 [vincristine] + NC(=O)c1ccc(N(C(N)=O)c2c(F)cccc2F)nc1-c1ccc(F)cc1F [VX702] (first compound 0.0001 µM, partner dose 0.4 µM)",82.2%
4,"Cc1ccc(Nc2nccc(N(C)c3ccc4c(C)n(C)nc4c3)n2)cc1S(N)(=O)=O [Pazopanib] + C=CCNC1=C2C[C@@H](C)C[C@H](OC)[C@H](O)[C@@H](C)/C=C(\C)[C@H](OC(N)=O)[C@@H](OC)/C=C\C=C(/C)C(=O)NC(=CC1=O)C2=O [Tanespimycin] (first compound 0.4 µM, partner dose 0.002 µM)",66.3%
5,"O=C(Nc1cc(C(F)(F)F)cc(C(F)(F)F)c1)c1cc(Cl)ccc1O + Cn1c(=O)n(-c2ccc(C(C)(C)C#N)cc2)c2c3cc(-c4cnc5ccccc5c4)ccc3ncc21 [NVP-BEZ235] (first compound 0.016 µM, partner dose 0.004 µM)",144%
6,"Cc1cn(-c2cc(NC(=O)c3ccc(C)c(Nc4nccc(-c5cccnc5)n4)c3)cc(C(F)(F)F)c2)cn1 [nilotinib] + Cc1nc(Nc2ncc(C(=O)Nc3c(C)cccc3Cl)s2)cc(N2CCN(CCO)CC2)n1 [dasatanib] (first compound 0.2 µM, partner dose 0.004 µM)",66.8%
7,"Cc1cc(Nc2cc(N3CCN(C)CC3)nc(Sc3ccc(NC(=O)C4CC4)cc3)n2)n[nH]1 [Tozasertib] + O=C(O)c1ccc2c(c1)nc(Nc1cccc(Cl)c1)c1ccncc12 [CX4945] (first compound 0.006 µM, partner dose 0.4 µM)",66.6%
8,"O=C(Nc1cc(C(F)(F)F)cc(C(F)(F)F)c1)c1cc(Cl)ccc1O + CO[C@H]1C[C@@H]2CC[C@@H](C)[C@@](O)(O2)C(=O)C(=O)N2CCCC[C@H]2C(=O)O[C@H]([C@H](C)C[C@@H]2CC[C@@H](OCCO)[C@H](OC)C2)CC(=O)[C@H](C)/C=C(\C)[C@@H](O)[C@@H](OC)C(=O)[C@H](C)C[C@H](C)/C=C/C=C/C=C/1C [everolimus] (first compound 0.016 µM, partner dose 0.02 µM)",127%
9,"Cc1cc(Nc2cc(N3CCN(C)CC3)nc(Sc3ccc(NC(=O)C4CC4)cc3)n2)n[nH]1 [Tozasertib] + Nc1cccc2c1CN(C1CCC(=O)NC1=O)C2=O [lenalidomide] (first compound 0.006 µM, partner dose 1 µM)",144%
10,"O=C(Nc1cc(C(F)(F)F)cc(C(F)(F)F)c1)c1cc(Cl)ccc1O + Cn1nnc2c(C(N)=O)ncn2c1=O [temozolomide] (first compound 0.016 µM, partner dose 2 µM)",69.4%
11,"COc1cc([C@@H]2c3cc4c(cc3[C@@H](O[C@@H]3O[C@@H]5CO[C@@H](C)O[C@H]5[C@H](O)[C@H]3O)[C@H]3COC(=O)[C@H]23)OCO4)cc(OC)c1O [etoposide] + Cn1sc(=O)n(Cc2ccccc2)c1=O [TDZD-8] (first compound 0.02 µM, partner dose 0.4 µM)",89.5%
12,"Cc1cn(-c2cc(NC(=O)c3ccc(C)c(Nc4nccc(-c5cccnc5)n4)c3)cc(C(F)(F)F)c2)cn1 [nilotinib] + Nc1nc(F)nc2c1ncn2[C@@H]1O[C@H](CO)[C@@H](O)[C@@H]1O [fludarabine] (first compound 0.2 µM, partner dose 0.2 µM)",75%
13,"O=c1[nH]nc(Sc2ncc([N+](=O)[O-])s2)n1-c1ccc2c(c1)OCCO2 + CO[C@H]1C[C@@H]2CC[C@@H](C)[C@@](O)(O2)C(=O)C(=O)N2CCCC[C@H]2C(=O)O[C@H]([C@H](C)C[C@@H]2CC[C@@H](OCCO)[C@H](OC)C2)CC(=O)[C@H](C)/C=C(\C)[C@@H](O)[C@@H](OC)C(=O)[C@H](C)C[C@H](C)/C=C/C=C/C=C/1C [everolimus] (first compound 0.2 µM, partner dose 0.02 µM)",93.4%
14,"O=c1[nH]nc(Sc2ncc([N+](=O)[O-])s2)n1-c1ccc2c(c1)OCCO2 + Cn1nnc2c(C(N)=O)ncn2c1=O [temozolomide] (first compound 0.2 µM, partner dose 2 µM)",49.2%
15,"Cc1cc(Nc2cc(N3CCN(C)CC3)nc(Sc3ccc(NC(=O)C4CC4)cc3)n2)n[nH]1 [Tozasertib] + C[C@@H](Oc1cc(-c2cnn(C3CCNCC3)c2)cnc1N)c1c(Cl)ccc(F)c1Cl [Crizotinib] (first compound 0.006 µM, partner dose 0.2 µM)",120%
16,"O=c1[nH]nc(Sc2ncc([N+](=O)[O-])s2)n1-c1ccc2c(c1)OCCO2 + NC(=O)c1ccc(N(C(N)=O)c2c(F)cccc2F)nc1-c1ccc(F)cc1F [VX702] (first compound 0.2 µM, partner dose 0.4 µM)",147%
17,"Cc1ccc(Nc2nccc(N(C)c3ccc4c(C)n(C)nc4c3)n2)cc1S(N)(=O)=O [Pazopanib] + CO[C@H]1C[C@@H]2CC[C@@H](C)[C@@](O)(O2)C(=O)C(=O)N2CCCC[C@H]2C(=O)O[C@H]([C@H](C)C[C@@H]2CC[C@@H](OCCO)[C@H](OC)C2)CC(=O)[C@H](C)/C=C(\C)[C@@H](O)[C@@H](OC)C(=O)[C@H](C)C[C@H](C)/C=C/C=C/C=C/1C [everolimus] (first compound 0.4 µM, partner dose 0.02 µM)",63.1%
18,"Cc1ccc(Nc2nccc(N(C)c3ccc4c(C)n(C)nc4c3)n2)cc1S(N)(=O)=O [Pazopanib] + CCCS(=O)(=O)Nc1ccc(F)c(C(=O)c2c[nH]c3ncc(Cl)cc23)c1F [PLX4720] (first compound 0.4 µM, partner dose 0.08 µM)",109%
19,"N#CC[C@H](C1CCCC1)n1cc(-c2ncnc3[nH]ccc23)cn1 [ruxolitinib] + OCc1c[nH]c2ccccc12 [Indole-3-carbinol] (first compound 1 µM, partner dose 0.8 µM)",49.5%
20,"Cc1ccc(Nc2nccc(N(C)c3ccc4c(C)n(C)nc4c3)n2)cc1S(N)(=O)=O [Pazopanib] + OCc1c[nH]c2ccccc12 [Indole-3-carbinol] (first compound 0.4 µM, partner dose 0.8 µM)",56%
21,"COc1cc([C@@H]2c3cc4c(cc3[C@@H](O[C@@H]3O[C@@H]5CO[C@@H](C)O[C@H]5[C@H](O)[C@H]3O)[C@H]3COC(=O)[C@H]23)OCO4)cc(OC)c1O [etoposide] + C[C@]1(O)C[C@@H](c2nc(-c3ccc4ccc(-c5ccccc5)nc4c3)c3c(N)nccn32)C1 [OSI906] (first compound 0.02 µM, partner dose 0.4 µM)",143%
22,"N#CC[C@H](C1CCCC1)n1cc(-c2ncnc3[nH]ccc23)cn1 [ruxolitinib] + CO[C@H]1C[C@@H]2CC[C@@H](C)[C@@](O)(O2)C(=O)C(=O)N2CCCC[C@H]2C(=O)O[C@H]([C@H](C)C[C@@H]2CC[C@@H](OCCO)[C@H](OC)C2)CC(=O)[C@H](C)/C=C(\C)[C@@H](O)[C@@H](OC)C(=O)[C@H](C)C[C@H](C)/C=C/C=C/C=C/1C [everolimus] (first compound 1 µM, partner dose 0.02 µM)",43.4%
23,"Cc1ccc(Nc2nccc(N(C)c3ccc4c(C)n(C)nc4c3)n2)cc1S(N)(=O)=O [Pazopanib] + Cn1nnc2c(C(N)=O)ncn2c1=O [temozolomide] (first compound 0.4 µM, partner dose 2 µM)",102%
24,"O=c1[nH]nc(Sc2ncc([N+](=O)[O-])s2)n1-c1ccc2c(c1)OCCO2 + CCCS(=O)(=O)Nc1ccc(F)c(C(=O)c2c[nH]c3ncc(Cl)cc23)c1F [PLX4720] (first compound 0.2 µM, partner dose 0.08 µM)",38.6%
25,"Cc1ccc(Nc2nccc(N(C)c3ccc4c(C)n(C)nc4c3)n2)cc1S(N)(=O)=O [Pazopanib] + CC(=O)c1c(C)c2cnc(Nc3ccc(N4CCNCC4)cn3)nc2n(C2CCCC2)c1=O [palbociclib] (first compound 0.4 µM, partner dose 0.04 µM)",82.1%

# Part of the list above in another layout.
row	SMILES	cleaved PARP positive nuclei fraction
19	N#CC[C@H](C1CCCC1)n1cc(-c2ncnc3[nH]ccc23)cn1 [ruxolitinib] + OCc1c[nH]c2ccccc12 [Indole-3-carbinol] (first compound 1 µM, partner dose 0.8 µM)	49.5%
20	Cc1ccc(Nc2nccc(N(C)c3ccc4c(C)n(C)nc4c3)n2)cc1S(N)(=O)=O [Pazopanib] + OCc1c[nH]c2ccccc12 [Indole-3-carbinol] (first compound 0.4 µM, partner dose 0.8 µM)	56%
